Results from patent US10786483B2, “Tumescent contravenom drug delivery” (HK Pharma, priority 2016, dated 2020).
“And” between values parts separate entries of the source, which are not always exact repeats. Equal values may be shown once. Read-outs that look alike come from different tables or passages of the source.

Experiments:
[1] = tolerance interval analysis, probability that Cmax >=6 μg/mL; design: species or system human
Experimental: The choice of the larger Cmax is conservative, in the sense that it increased the estimated probability that any given milligram per kilogram dose would produce a Cmax ≥6 μg/mL.
Tolerance intervals were calculated at a 99% level of confidence.

[2] = 14 subjects, 41 procedures
Excerpt: Heart rates, before, during, and after tumescent infiltration and immediately after liposuction were compared.

[3] = for difference of AUC∞ without versus with liposuction (lidocaine removed by liposuction before absorption): equal doses of tumescent lidocaine; for area under the curve of the serum lidocaine concentration-time profile (AUC∞): one patient-study per line, dose in column Lido (mg/kg), subcutaneous
clinical = conditions: human, serum, subcutaneous; for AUC(0-inf): 45 mg/kg, mean AUC∞ of serum lidocaine concentration-time profile, equal mg/kg dosages (45 mg/kg in FIG. 2)

For `CCN(CC)CC(=O)Nc1c(C)cccc1C` [lidocaine], the “estimated maximum safe dosage” value ([1]; with liposuction) was 45 mg/kg, the “estimated maximum safe dosage” value ([1]; without liposuction) was 28 mg/kg and the “clinical evidence of toxicity” value [2] was “no evidence”. The “difference of AUC∞ without versus with liposuction (lidocaine removed by liposuction before absorption)” value [3] was “approximately 28%”, the “difference of AUC∞ without versus with liposuction (lidocaine removed by liposuction before absorption)” value ([3]; listed as tumescent lidocaine) was 28% and the “area under the curve of the serum lidocaine concentration-time profile (AUC∞)” value ([3]; with liposuction) was 35300 ng·h/mL and 31000 ng·h/mL and 48600 ng·h/mL and 40600 ng·h/mL and 27600 ng·h/mL and 33700 ng·h/mL and 31900 ng·h/mL and 34800 ng·h/mL and 33800 ng·h/mL and 37700 ng·h/mL and 15200 ng·h/mL and 67800 ng·h/mL and 33000 ng·h/mL and 35700 ng·h/mL. The “area under the curve of the serum lidocaine concentration-time profile (AUC∞)” value ([3]; without liposuction) was 35000 ng·h/mL and 61500 ng·h/mL and 42000 ng·h/mL and 57900 ng·h/mL and 59000 ng·h/mL and 44500 ng·h/mL and 60500 ng·h/mL and 44400 ng·h/mL and 21000 ng·h/mL and 33400 ng·h/mL and 44300 ng·h/mL and 52700 ng·h/mL and 26000 ng·h/mL and 70300 ng·h/mL and 70800 ng·h/mL and 25600 ng·h/mL and 26900 ng·h/mL and 24200 ng·h/mL and 21800 ng·h/mL and 62000 ng·h/mL and 77400 ng·h/mL and 48300 ng·h/mL and 49600 ng·h/mL and 26500 ng·h/mL and 54500 ng·h/mL and 57700 ng·h/mL and 29400 ng·h/mL, the Cmax (clinical; 35 mg/kg, Cmax, 35 mg/kg without liposuction, first 2 subjects) was less than 6000 ng/mL and the AUC(0-inf) (clinical; with liposuction) was 40700 ng·h/mL. It also gave an AUC(0-inf) (clinical; without liposuction) of 56200 ng·h/mL, a Cmax (clinical; mean Cmax, with liposuction, equal mg/kg dosages) of 2380 ng/mL and a Cmax (clinical; mean Cmax, without liposuction, equal mg/kg dosages) of 2900 ng/mL. It also gave a Tmax (clinical; mean Tmax, with liposuction) of 12.5 h, a Tmax (clinical; mean Tmax, without liposuction) of 13.1 h and a Cmax (clinical; range of Cmax, with liposuction) of 970 to 3800 ng/mL. The Cmax (clinical; range of Cmax, without liposuction) was 1200 to 4400 ng/mL, the Tmax (clinical; range of Tmax, with liposuction) was 8 to 18 h and the Tmax (clinical; range of Tmax, without liposuction) was 8 to 24 h.
